Source: the supplement of paper PMC12819154, “High-throughput peptide-centric local stability assay extends protein–ligand identification to membrane proteins, tissues and bacteria” (Nature Structural & Molecular Biology, 2025)
The list shows a part of the results, in another mix than the full data. Most entries show no effect beyond the scatter of the controls.

Each target was assayed with Nc1ncnc2c1ncn2[C@@H]1O[C@H](COP(=O)(O)OP(=O)(O)OP(=O)(O)O)[C@@H](O)[C@H]1O [adenosine 5'-triphosphate] (assay: log2 fold change of tryptic peptide abundance, ligand vs vehicle (limited proteolysis) (log2 ratio); higher = more trypsin-susceptible (destabilized)). Conditions: ligand concentration: 5 mM; sample: E. coli desalted lysate; replicate design: treated before aliquoting.
Description: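 HT-PELSA: desalted E. coli K-12 BW25113 lysate (with 12 mM MgCl2) incubated with 5 mM ATP (pH 7) or water for 30 min at 25 C, then a 4 min trypsin pulse at 22 C. Peptides were quantified by DIA-MS (4 replicates). Value is the peptide log2 fold change (treated/control); negative = stabilized. Scale: negative = ligand-stabilized region.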
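Also: lysate desalted by size exclusion to strip endogenous ATP, peptide intensities built from DIA-NN precursor signals, and peptides missing any value discarded before comparison.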

Row | Target | log2 fold change
1 | UniProt P39265 (peptide sequence: SGKVIPLDKAPEFK, peptide start residue: 289) | 0.214
2 | UniProt P37095 (peptide sequence: KAPVEQWSAGATGLGVR, peptide start residue: 403) | -0.457
3 | UniProt P38134 (peptide sequence: SVGTSLLVAR, peptide start residue: 663) | 1.09
4 | UniProt P37639 (peptide sequence: LREEETSYSQLLTECR, peptide start residue: 179) | -0.35
5 | UniProt P38038 (peptide sequence: HIEIDLGDSGMR, peptide start residue: 258) | 0.469
6 | UniProt P31666 (peptide sequence: GFIDKGHLEPVQGR, peptide start residue: 73) | 0.335
7 | UniProt P33014 (peptide sequence: KLDVVTQVCPFPLIEAK, peptide start residue: 5) | -0.0291
8 | UniProt P37642 (peptide sequence: PIQDLEHEPIKPLDNSEK, peptide start residue: 10) | -0.358
9 | UniProt P36881 (peptide sequence: ETMTSSEFR, peptide start residue: 105) | 0.311
10 | UniProt P33634 (peptide sequence: VGNDDALNRR, peptide start residue: 148) | -0.445
11 | UniProt P32717 (peptide sequence: MADLVKAK, peptide start residue: 623) | -0.427
12 | UniProt P38684 (peptide sequence: DGEPIKLTR, peptide start residue: 152) | 0.457
13 | UniProt P37147 (peptide sequence: LDHKDDRQD, peptide start residue: 150) | 0.275
14 | UniProt P37653 (peptide sequence: AFSGLQNIR, peptide start residue: 105) | -0.0531
15 | UniProt P39288 (peptide sequence: LQAWLDK, peptide start residue: 40) | 0.239
16 | UniProt P31063 (peptide sequence: EGDTLDCR, peptide start residue: 61) | 0.494
17 | UniProt P38521 (peptide sequence: CTEEHQAIVR, peptide start residue: 77) | -0.232
18 | UniProt P37387 (peptide sequence: VLKPYVDSGKIK, peptide start residue: 171) | -1.15
19 | UniProt P37637 (peptide sequence: VYVQAGTPFR, peptide start residue: 769) | 0.552
20 | UniProt P31443 (peptide sequence: SPMELMTMLR, peptide start residue: 156) | -0.412

Reformatted: entries from further up

| Row | Target | log2 fold change |
| --- | --- | --- |
| 15 | UniProt P39288 (peptide sequence: LQAWLDK, peptide start residue: 40) | 0.239 |
| 16 | UniProt P31063 (peptide sequence: EGDTLDCR, peptide start residue: 61) | 0.494 |
| 17 | UniProt P38521 (peptide sequence: CTEEHQAIVR, peptide start residue: 77) | -0.232 |

Remaining list, next part.

Row | Target | log2 fold change
21 | UniProt P33591 (peptide sequence: LRGLNDKQTER, peptide start residue: 213) | 0.345
22 | UniProt P37664 (peptide sequence: HPHLMLEVYQK, peptide start residue: 97) | 0.34
23 | UniProt P37615 (peptide sequence: QQEVTPAGTSIR, peptide start residue: 60) | -0.27
24 | UniProt P37649 (peptide sequence: LLAAWQER, peptide start residue: 486) | -0.508
25 | UniProt P33934 (peptide sequence: GVITVAATDR, peptide start residue: 214) | 0.453
26 | UniProt P37443 (peptide sequence: VALASASRYNAWR, peptide start residue: 682) | 0.14
27 | UniProt P31460 (peptide sequence: NLVEPAIAR, peptide start residue: 103) | 0.239
28 | UniProt P39176 (peptide sequence: VQIIDQPVK, peptide start residue: 228) | -0.21
29 | UniProt P31471 (peptide sequence: NFTVVVGDKDVVTGK, peptide start residue: 331) | -0.459
30 | UniProt P31806 (peptide sequence: VITPHPGEAAR, peptide start residue: 371) | 0.382
31 | UniProt P33916 (peptide sequence: GEILNCLDR, peptide start residue: 132) | 0.465
32 | UniProt P36548 (peptide sequence: VVVLDPGHGGIDTGAIGR, peptide start residue: 58) | 0.474
33 | UniProt P37657 (peptide sequence: LFSMLNHEK, peptide start residue: 82) | -0.458
34 | UniProt P37613 (peptide sequence: LTIIRLEK, peptide start residue: 3) | -0.818
35 | UniProt P31545 (peptide sequence: VIALDSHIR, peptide start residue: 323) | -0.44
36 | UniProt P33941 (peptide sequence: ILDTHVER, peptide start residue: 91) | 0.358
37 | UniProt P37645 (peptide sequence: LEGDVESR, peptide start residue: 352) | -0.232
38 | UniProt P39173 (peptide sequence: RKLDELDLIVVDHPQVK, peptide start residue: 21) | 0.572
39 | UniProt P33020 (peptide sequence: EKEILAILR, peptide start residue: 5) | -0.45
40 | UniProt P37047 (peptide sequence: MKEYGQLR, peptide start residue: 238) | -0.418
